Data from PubChem BioAssay AID1259354 (Paczesny and Yang Labs, IUPUI and University of Michigan, 2018).
Screen size: about 78,000 compounds; about 1,800 (2.3%) were called active. The inconclusive results got no clear call from the source; some entries with a clear call stand among them for comparison. Rule as the data show it: active = inhibition above about 30%; inconclusive = mostly about 10% to 28%; inactive = weaker than that.

By UniProt entry, the sequences of proteins in these tests, tags left out. Where a name states a change or a piece, a line headed by the entry shows the natural chain unless it says otherwise.
UniProt Q01638: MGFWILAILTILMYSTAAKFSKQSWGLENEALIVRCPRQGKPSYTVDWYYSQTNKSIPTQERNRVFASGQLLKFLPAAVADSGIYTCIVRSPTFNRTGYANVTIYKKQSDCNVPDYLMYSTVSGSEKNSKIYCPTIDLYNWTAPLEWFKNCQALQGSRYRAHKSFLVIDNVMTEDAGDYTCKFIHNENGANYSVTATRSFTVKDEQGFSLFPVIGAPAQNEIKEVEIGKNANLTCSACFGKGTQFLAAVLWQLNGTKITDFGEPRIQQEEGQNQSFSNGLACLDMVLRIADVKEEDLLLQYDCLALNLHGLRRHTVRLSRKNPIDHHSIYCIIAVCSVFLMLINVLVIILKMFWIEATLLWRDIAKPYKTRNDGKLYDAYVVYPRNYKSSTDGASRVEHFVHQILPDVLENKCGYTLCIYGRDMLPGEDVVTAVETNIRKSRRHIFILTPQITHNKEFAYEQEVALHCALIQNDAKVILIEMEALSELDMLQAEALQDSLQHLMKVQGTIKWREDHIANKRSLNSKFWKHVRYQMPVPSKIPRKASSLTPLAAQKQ

What follows are compounds tested against Interleukin-1 receptor-like 1 (Homo sapiens) (UniProt Q01638) (assay: blocks human ST2 binding to IL-33, primary screen, biochemical, AlphaLISA (AID 1259354)). Details: AlphaLISA ST2-Fc/biotin-IL-33 interaction, 1 h; at 17 µM, stronger effect = higher value.
With `CC(C)(C)CC(=O)N[C@@H]1C=C(C(=O)NCC(N)=O)C[C@@H](O)[C@@H]1O` the inhibition was inconclusive: 18%.
`COc1cc2ccc(=O)oc2c(OC)c1O` was tested, and the inhibition was “inactive”.
For `O=[N+]([O-])c1cccc(C=Nc2ccc3nc(-c4ccc(F)cc4)[nH]c3c2)c1`, the inhibition was inconclusive: 17%.
For `CCCCNS(=O)(=O)c1c(C)[nH]c(=O)[nH]c1=O`, the inhibition was “inactive”.
`CC1=CC[C@@H]2CN(C(=O)CCCn3cncn3)C[C@@H]2C1` was tested, and the inhibition was “inactive”.
In the case of `Cc1ccc2[nH]c(=O)nc(-c3ccccc3)c2c1`, the inhibition is reported as “inactive”.
For `O=C(CSc1nnc2c(n1)[nH]c1ccccc12)N=C1NC(=O)CS1`, the inhibition was “inactive”.
With `O=C(Cn1cnc2c(cnn2-c2ccc(Cl)cc2)c1=O)Nc1cccc(F)c1` the inhibition was inconclusive: 12%.
For `Cc1nnc(CNC(=O)CC2c3ccccc3CCc3ccccc32)o1`, the inhibition was inconclusive: 10%.
In the case of `Cc1ccccc1Cn1c(=N)n(CC(=O)O)c2ccccc21`, the inhibition is reported as inconclusive: 12%.
For `Cn1c(=O)cc(SCC(=O)Nc2cnc3ccccc3c2)c2ccccc21`, the inhibition was inconclusive: 19%.
`Cc1ccc(-n2cc(-c3ccc(Cl)cc3)[nH]c2=O)cc1F` was tested, and the inhibition was inconclusive: 15%.
`Cn1ccnc1C(O)C1CCN(C(=O)CCc2c[nH]c3ccccc23)CC1` (configuration not stated) was tested, and the inhibition was “inactive”.
For `COc1ccc(NC(=O)c2cccc(NC(=O)c3ccco3)c2)c(OC)c1`, the inhibition was inconclusive: 13%.
For `COc1ccc(N2CC(C(=O)NCC3CCCO3)CC2=O)cc1` (configuration not stated), the inhibition was “inactive”.
With `Cn1cc(C(=O)NCCCN2CCN(c3ccccc3F)CC2)c2c3ccccc3n(C)c2c1=O` the inhibition was “inactive”.
With `CCCC(C(N)=O)C1=NC2(CCCCC2)Cc2ccccc21` (configuration not stated) the inhibition was inconclusive: 10%.
In the case of `Oc1cc2ccccc2cc1-n1cnnc1`, the inhibition is reported as inconclusive: 18%.
In the case of `COc1cccc2c1N1C(=O)c3c(C(=O)O)cccc3C1CC2(C)C` (configuration not stated), the inhibition is reported as inconclusive: 22%.
`O=C(Nc1ccc(F)c(Cl)c1)c1ccc(Br)o1` was tested, and the inhibition was inconclusive: 27%.
`COc1ccc(C(=O)Nc2ccc(OC)cc2OC)cc1` was tested, and the inhibition was “inactive”.
With `O=C(Nc1ccc2c(c1)OCO2)N1CCC(n2cc(C3CCCC3)nn2)CC1` the inhibition was inconclusive: 14%.
In the case of `COc1cc(S(=O)(=O)NCCOC23CC4CC(CC(C4)C2)C3)c(OC)cc1Cl`, the inhibition is reported as inconclusive: 15%.
With `CCOc1ccccc1NS(=O)(=O)c1cc([N+](=O)[O-])ccc1C` the inhibition was “inactive”.
With `COc1cc(OC)c(C2C(C#N)=C(N)Oc3n[nH]c(-c4cccc([N+](=O)[O-])c4)c32)cc1OC` (configuration not stated) the inhibition was inconclusive: 19%.
In the case of `Oc1oc(-c2ccc(Cl)cc2)nc1C=Nc1ccccc1I`, the inhibition is reported as inconclusive: 19%.
In the case of `c1ccc(-c2nnc(-c3cccc(-c4nnc(-c5ccccc5)o4)c3)o2)cc1`, the inhibition is reported as inconclusive: 14%.
